# ± gives the standard deviation of the averaged measurements. This is a selection; strong and weak results do not stand in their true shares.
# Protein sequences, listed by entry. Tags and fused reporters are not part of them. Lines headed by an entry give the natural chain unless they say otherwise; changes in a name come on top.
# UniProt P15813: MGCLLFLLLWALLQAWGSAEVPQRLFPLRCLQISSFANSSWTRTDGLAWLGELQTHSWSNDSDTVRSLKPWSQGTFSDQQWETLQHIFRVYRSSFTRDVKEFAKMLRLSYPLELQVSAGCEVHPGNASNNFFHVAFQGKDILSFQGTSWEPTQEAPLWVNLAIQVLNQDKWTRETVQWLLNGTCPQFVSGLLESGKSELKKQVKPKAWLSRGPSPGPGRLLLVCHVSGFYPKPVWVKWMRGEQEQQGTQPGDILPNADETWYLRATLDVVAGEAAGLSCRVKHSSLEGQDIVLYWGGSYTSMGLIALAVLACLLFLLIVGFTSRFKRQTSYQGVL
# UniProt P09132: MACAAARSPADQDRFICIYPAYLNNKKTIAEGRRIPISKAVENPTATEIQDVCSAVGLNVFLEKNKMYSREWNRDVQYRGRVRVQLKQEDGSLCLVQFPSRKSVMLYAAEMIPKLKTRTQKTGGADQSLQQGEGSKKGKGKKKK
# UniProt P13861, whole entry: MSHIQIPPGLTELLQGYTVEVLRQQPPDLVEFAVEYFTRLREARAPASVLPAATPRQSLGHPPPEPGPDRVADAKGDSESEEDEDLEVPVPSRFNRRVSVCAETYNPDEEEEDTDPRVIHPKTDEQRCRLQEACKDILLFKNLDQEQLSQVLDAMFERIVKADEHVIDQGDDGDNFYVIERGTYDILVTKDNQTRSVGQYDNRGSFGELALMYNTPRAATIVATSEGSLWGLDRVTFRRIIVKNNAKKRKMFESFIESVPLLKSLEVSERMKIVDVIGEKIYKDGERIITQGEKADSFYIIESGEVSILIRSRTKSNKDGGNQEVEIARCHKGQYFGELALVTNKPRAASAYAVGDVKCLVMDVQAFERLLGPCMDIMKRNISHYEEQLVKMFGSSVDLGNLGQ
# UniProt P10398: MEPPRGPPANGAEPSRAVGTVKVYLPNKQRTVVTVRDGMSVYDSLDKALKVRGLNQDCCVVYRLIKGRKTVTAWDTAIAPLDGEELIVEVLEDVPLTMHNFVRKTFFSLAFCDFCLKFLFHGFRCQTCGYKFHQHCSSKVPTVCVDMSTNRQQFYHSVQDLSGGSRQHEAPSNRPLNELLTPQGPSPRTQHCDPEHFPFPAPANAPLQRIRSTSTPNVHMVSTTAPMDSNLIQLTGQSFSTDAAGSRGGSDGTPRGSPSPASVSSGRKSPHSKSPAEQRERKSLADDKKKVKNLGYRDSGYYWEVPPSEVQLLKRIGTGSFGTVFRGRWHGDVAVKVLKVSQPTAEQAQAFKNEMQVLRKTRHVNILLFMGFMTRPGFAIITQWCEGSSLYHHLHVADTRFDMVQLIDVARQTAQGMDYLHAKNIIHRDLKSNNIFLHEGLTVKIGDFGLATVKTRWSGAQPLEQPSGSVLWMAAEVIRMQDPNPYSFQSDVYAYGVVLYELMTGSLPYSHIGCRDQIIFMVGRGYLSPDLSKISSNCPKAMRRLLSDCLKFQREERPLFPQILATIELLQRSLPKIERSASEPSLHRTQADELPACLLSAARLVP
# UniProt P13196: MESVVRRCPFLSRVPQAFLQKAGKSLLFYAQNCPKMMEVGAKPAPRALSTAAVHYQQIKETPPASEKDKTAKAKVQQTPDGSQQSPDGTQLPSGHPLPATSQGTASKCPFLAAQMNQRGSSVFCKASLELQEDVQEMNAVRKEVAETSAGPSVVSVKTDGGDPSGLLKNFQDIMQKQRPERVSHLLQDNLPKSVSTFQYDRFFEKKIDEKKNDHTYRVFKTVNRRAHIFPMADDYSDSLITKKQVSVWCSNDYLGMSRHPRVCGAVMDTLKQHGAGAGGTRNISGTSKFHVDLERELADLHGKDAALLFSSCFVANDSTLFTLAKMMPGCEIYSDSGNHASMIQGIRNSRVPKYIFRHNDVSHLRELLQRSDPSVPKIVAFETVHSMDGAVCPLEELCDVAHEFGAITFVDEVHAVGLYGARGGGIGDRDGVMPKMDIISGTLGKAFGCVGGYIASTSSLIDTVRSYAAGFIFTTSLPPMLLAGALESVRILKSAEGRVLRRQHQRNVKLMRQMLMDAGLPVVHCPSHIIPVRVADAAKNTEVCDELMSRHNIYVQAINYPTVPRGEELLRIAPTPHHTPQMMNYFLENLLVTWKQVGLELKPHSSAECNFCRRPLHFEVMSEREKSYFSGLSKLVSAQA
# UniProt P02795: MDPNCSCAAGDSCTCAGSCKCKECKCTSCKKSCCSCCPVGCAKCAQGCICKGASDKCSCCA
# UniProt P06733, whole entry: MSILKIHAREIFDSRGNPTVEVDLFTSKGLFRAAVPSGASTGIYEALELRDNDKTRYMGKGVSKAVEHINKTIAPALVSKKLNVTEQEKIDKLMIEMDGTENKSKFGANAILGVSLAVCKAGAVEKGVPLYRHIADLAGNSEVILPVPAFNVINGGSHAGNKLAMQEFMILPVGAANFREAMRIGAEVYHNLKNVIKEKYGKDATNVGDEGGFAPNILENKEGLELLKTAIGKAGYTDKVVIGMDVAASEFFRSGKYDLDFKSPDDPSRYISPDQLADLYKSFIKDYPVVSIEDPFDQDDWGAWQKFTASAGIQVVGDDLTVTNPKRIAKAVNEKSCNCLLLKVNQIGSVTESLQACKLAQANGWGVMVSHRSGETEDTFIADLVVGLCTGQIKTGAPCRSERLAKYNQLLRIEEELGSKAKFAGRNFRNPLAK
# UniProt P12236: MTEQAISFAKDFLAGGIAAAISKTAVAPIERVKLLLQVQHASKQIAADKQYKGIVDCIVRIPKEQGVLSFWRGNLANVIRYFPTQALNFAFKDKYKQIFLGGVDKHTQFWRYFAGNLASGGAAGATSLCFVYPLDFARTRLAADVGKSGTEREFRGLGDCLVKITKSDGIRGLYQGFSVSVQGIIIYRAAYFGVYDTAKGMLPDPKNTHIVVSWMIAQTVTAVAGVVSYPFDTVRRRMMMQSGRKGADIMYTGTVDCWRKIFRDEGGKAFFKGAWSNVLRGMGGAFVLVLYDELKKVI
# UniProt P07108: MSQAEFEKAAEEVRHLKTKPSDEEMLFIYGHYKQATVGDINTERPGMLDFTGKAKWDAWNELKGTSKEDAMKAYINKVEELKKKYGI
# UniProt O95881: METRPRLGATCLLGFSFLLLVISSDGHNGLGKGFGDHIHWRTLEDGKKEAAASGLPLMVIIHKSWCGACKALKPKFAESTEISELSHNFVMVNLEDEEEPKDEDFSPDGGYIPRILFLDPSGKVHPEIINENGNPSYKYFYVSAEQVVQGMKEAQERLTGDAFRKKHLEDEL
# UniProt P04843: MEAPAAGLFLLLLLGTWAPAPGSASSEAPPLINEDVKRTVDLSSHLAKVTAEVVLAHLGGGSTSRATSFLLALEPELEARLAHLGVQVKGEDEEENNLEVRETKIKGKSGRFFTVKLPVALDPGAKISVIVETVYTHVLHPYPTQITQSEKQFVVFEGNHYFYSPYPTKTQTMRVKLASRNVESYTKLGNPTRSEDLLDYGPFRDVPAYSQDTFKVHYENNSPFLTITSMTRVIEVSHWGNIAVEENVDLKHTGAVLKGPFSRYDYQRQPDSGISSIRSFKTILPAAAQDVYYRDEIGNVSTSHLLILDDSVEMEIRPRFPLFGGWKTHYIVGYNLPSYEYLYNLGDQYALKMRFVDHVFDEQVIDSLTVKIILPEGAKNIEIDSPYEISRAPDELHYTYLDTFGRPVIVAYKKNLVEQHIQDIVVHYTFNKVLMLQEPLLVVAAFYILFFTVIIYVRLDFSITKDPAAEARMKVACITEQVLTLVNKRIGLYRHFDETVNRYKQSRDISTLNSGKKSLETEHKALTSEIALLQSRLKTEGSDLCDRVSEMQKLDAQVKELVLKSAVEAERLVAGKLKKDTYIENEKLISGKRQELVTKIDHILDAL
# UniProt P07437, whole entry: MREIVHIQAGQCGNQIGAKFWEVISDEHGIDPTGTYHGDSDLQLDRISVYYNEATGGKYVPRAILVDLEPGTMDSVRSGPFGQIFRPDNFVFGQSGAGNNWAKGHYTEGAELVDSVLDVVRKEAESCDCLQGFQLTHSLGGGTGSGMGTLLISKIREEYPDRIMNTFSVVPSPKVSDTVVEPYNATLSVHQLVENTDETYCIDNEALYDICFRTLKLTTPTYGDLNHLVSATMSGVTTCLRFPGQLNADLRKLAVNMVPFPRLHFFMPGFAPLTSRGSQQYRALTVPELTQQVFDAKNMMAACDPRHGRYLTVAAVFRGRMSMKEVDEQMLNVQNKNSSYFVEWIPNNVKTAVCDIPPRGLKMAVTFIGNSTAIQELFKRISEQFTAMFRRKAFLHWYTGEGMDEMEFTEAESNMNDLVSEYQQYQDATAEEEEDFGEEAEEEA
# UniProt P12270, whole entry: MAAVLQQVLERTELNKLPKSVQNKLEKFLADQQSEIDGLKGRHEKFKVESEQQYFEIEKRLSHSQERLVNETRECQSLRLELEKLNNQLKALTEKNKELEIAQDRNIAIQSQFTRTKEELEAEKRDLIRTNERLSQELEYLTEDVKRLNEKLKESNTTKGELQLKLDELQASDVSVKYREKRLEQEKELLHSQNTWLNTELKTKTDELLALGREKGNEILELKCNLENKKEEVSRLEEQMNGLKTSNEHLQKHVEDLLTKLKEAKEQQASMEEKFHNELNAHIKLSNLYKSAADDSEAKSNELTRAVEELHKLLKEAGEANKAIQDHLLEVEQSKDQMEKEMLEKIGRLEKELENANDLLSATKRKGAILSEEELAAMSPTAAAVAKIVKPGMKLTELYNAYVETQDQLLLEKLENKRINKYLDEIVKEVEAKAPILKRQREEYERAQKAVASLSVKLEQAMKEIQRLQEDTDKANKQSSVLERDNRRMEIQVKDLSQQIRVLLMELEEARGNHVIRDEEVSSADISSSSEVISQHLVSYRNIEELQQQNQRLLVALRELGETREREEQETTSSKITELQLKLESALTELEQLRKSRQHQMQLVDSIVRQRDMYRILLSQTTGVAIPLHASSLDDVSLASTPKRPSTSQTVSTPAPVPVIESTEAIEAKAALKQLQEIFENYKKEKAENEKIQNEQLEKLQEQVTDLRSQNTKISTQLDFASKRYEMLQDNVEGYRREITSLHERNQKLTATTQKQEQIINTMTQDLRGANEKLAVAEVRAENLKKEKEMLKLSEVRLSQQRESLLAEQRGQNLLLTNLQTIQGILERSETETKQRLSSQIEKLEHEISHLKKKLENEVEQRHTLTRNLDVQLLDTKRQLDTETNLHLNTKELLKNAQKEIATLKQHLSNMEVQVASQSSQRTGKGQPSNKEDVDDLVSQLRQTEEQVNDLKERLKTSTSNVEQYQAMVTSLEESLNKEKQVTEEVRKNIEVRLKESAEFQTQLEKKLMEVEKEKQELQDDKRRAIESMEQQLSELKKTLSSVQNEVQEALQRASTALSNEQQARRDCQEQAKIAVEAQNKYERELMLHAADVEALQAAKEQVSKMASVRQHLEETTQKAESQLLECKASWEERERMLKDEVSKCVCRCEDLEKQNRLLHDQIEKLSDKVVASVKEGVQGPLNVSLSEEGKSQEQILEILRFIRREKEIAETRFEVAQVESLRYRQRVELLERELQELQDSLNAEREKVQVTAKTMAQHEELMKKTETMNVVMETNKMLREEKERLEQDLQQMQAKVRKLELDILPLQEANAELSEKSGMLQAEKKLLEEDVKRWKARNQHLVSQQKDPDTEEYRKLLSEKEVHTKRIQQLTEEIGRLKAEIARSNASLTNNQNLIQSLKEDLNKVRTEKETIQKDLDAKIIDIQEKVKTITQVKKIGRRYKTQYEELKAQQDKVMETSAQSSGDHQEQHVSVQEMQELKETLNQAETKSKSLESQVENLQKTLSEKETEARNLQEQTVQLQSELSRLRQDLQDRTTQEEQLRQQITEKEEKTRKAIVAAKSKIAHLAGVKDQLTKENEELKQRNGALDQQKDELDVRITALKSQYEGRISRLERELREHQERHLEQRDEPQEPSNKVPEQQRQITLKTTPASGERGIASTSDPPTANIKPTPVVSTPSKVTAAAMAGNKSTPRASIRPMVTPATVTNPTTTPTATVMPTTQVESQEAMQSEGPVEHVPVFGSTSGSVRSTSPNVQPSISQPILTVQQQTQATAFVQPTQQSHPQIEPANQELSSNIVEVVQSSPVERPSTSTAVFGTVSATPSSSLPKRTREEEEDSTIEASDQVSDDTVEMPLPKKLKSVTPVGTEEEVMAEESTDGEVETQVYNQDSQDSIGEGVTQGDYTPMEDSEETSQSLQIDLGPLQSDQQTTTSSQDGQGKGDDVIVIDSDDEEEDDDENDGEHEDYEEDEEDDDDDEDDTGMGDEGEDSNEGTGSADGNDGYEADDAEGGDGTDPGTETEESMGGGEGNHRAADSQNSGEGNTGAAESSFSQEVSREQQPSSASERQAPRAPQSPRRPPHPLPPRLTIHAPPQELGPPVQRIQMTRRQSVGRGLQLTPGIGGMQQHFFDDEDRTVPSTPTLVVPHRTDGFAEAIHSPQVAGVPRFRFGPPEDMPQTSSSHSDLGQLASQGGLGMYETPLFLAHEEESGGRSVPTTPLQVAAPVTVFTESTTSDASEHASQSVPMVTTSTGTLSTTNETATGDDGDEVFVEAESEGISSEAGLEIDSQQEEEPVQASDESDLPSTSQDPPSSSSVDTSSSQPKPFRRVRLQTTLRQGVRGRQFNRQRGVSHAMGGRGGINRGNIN
# Compound: Nc1ncnc2c1ncn2[C@@H]1O[C@H](COP(=O)(O)OP(=O)(O)OP(=O)(O)O)[C@@H](O)[C@H]1O [adenosine triphosphate]
# Assay: NP40-soluble protein abundance relative to vehicle (solubility fold change) (ratio); higher = more soluble protein in presence of ATP
# Method in brief: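 Crude Jurkat lysate, prepared by Dounce homogenisation, was exposed to eight concentrations from 0.1 to 10 mM for 10 min at room temperature and then 3 min at 37 °C. Solubilisation used 0.8% NP40 with benzonase for 60 min at 4 °C, followed by ultracentrifugation and TMT labelling of the supernatant for LC-MS/MS. After vsn normalisation of intensities, each value is the fold change against the detergent-processed vehicle within each replicate, across three independent experiments.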
Target,NP40-soluble protein abundance (concentration: 1mM),NP40-soluble protein abundance (concentration: 2mM),NP40-soluble protein abundance (concentration: 4mM),NP40-soluble protein abundance (concentration: 6mM),NP40-soluble protein abundance (concentration: 8mM),NP40-soluble protein abundance (concentration: 10mM)
RALA (UniProt P11233),1.01 ± 0.04,0.981 ± 0.041,0.962 ± 0.054,1.02 ± 0.041,0.956 ± 0.022,0.956 ± 0.053
SYF2 (UniProt O95926),0.699 ± 0.055,0.671 ± 0.08,0.704 ± 0.043,0.741 ± 0.16,0.8 ± 0.035,0.801 ± 0.079
GNAI3 (UniProt P08754),0.982 ± 0.067,0.991 ± 0.038,0.951 ± 0.024,0.865 ± 0.12,0.955 ± 0.048,1.01 ± 0.055
UniProt P05026 and related entries,1.08 ± 0.17,0.985 ± 0.044,0.9948 ± 0.005,0.98 ± 0.033,0.933 ± 0.042,0.948 ± 0.07
UniProt P15813,0.866 ± 0.011,0.916 ± 0.023,0.917 ± 0.054,0.851 ± 0.083,0.823 ± 0.018,0.911 ± 0.035
UniProt P09132 and related entries,0.948 ± 0.085,0.967 ± 0.063,0.97 ± 0.059,1.05 ± 0.06,1.01 ± 0.031,1.01 ± 0.037
PRKAR2A (UniProt P13861),0.998 ± 0.011,0.966 ± 0.015,0.953 ± 0.017,0.966 ± 0.018,0.966 ± 0.019,0.951 ± 0.019
ANXA3 (UniProt P12429),0.9552 ± 0.0091,0.992 ± 0.012,0.952 ± 0.032,0.986 ± 0.033,0.912 ± 0.033,0.922 ± 0.036
ARSB (UniProt P15848),0.91 ± 0.025,0.931 ± 0.088,0.931 ± 0.057,0.8991 ± 0.0078,0.861 ± 0.011,0.976 ± 0.041
UniProt P10398 and related entries,1.33 ± 0.088,1.36 ± 0.099,1.38 ± 0.11,1.38 ± 0.085,1.37 ± 0.12,1.41 ± 0.12
UniProt P07954-2,0.9521 ± 0.0089,0.934 ± 0.034,0.923 ± 0.016,0.945 ± 0.025,0.913 ± 0.022,0.909 ± 0.05
HPRT1 (UniProt P00492),0.949 ± 0.068,0.962 ± 0.029,0.934 ± 0.028,0.859 ± 0.12,0.922 ± 0.026,0.932 ± 0.018
P0C0S5 and related entries (UniProt Q71UI9+P0C0S5),0.966 ± 0.096,0.942 ± 0.078,0.971 ± 0.094,1 ± 0.042,1.02 ± 0.081,1.07 ± 0.17
ALAS1 (UniProt P13196),1 ± 0.068,1.04 ± 0.045,1.09 ± 0.082,1.07 ± 0.084,1.06 ± 0.034,1.05 ± 0.036
UniProt P14151 and related entries,0.976 ± 0.058,0.9443 ± 0.0048,0.945 ± 0.03,1.04 ± 0.046,0.951 ± 0.016,0.887 ± 0.042
UniProt P09693,0.908 ± 0.038,0.926 ± 0.034,0.893 ± 0.043,0.96 ± 0.071,0.879 ± 0.045,0.832 ± 0.079
MT2A (UniProt P02795),0.826 ± 0.056,0.873 ± 0.036,1 ± 0.06,0.93 ± 0.024,0.961 ± 0.18,0.903 ± 0.02
ENO1 (UniProt P06733),0.893 ± 0.074,1.05 ± 0.089,0.847 ± 0.056,1.04 ± 0.12,0.992 ± 0.11,0.837 ± 0.027
DLAT (UniProt P10515),1.31 ± 0.28,1.03 ± 0.2,0.967 ± 0.16,1.06 ± 0.51,1.04 ± 0.35,0.987 ± 0.28
UniProt P06454-2|B8ZZQ6 and related entries,0.925 ± 0.085,0.868 ± 0.043,0.904 ± 0.035,1.01 ± 0.11,0.844 ± 0.024,0.843 ± 0.073
UniProt P11171-2|P11171 and related entries,0.99 ± 0.01,0.98 ± 0.024,0.973 ± 0.023,0.992 ± 0.044,0.971 ± 0.033,0.967 ± 0.035
FADS2 (UniProt O95864),1.04 ± 0.069,0.99 ± 0.049,0.973 ± 0.04,0.958 ± 0.066,1.03 ± 0.042,1.02 ± 0.05
SLC25A6 (UniProt P12236),0.932 ± 0.08,0.956 ± 0.055,0.925 ± 0.017,0.885 ± 0.091,0.93 ± 0.067,1.03 ± 0.092
RRAS (UniProt P10301),1.62 ± 0.67,1.03 ± 0.11,1.12 ± 0.13,1.05 ± 0.16,0.992 ± 0.12,1.04 ± 0.12
DBI (UniProt P07108),0.931 ± 0.14,0.929 ± 0.12,0.965 ± 0.11,1.05 ± 0.12,0.886 ± 0.049,0.867 ± 0.064
UniProt P01116-2|P01116,0.955 ± 0.085,0.983 ± 0.058,0.991 ± 0.042,0.982 ± 0.064,0.944 ± 0.087,0.993 ± 0.06

Target,NP40-soluble protein abundance (concentration: 1mM),NP40-soluble protein abundance (concentration: 2mM),NP40-soluble protein abundance (concentration: 4mM),NP40-soluble protein abundance (concentration: 6mM),NP40-soluble protein abundance (concentration: 8mM),NP40-soluble protein abundance (concentration: 10mM)
HARS (UniProt P12081),0.978 ± 0.033,0.976 ± 0.041,0.952 ± 0.03,0.958 ± 0.058,0.954 ± 0.028,0.944 ± 0.044
UniProt O96000 and related entries,1.03 ± 0.18,0.898 ± 0.089,0.918 ± 0.1,0.911 ± 0.14,0.934 ± 0.079,0.85 ± 0.15
UniProt P15923-2|X6REB3 and related entries,0.91 ± 0.021,0.917 ± 0.031,0.9 ± 0.032,0.921 ± 0.039,0.8683 ± 0.0084,0.871 ± 0.044
UniProt P16278 and related entries,0.97 ± 0.021,1 ± 0.043,0.992 ± 0.026,0.926 ± 0.034,0.922 ± 0.052,0.955 ± 0.015
UniProt P08236 and related entries,1.02 ± 0.1,0.994 ± 0.035,0.957 ± 0.034,0.9263 ± 0.0086,0.965 ± 0.036,0.979 ± 0.024
ASS1 (UniProt P00966),0.997 ± 0.091,1.01 ± 0.09,1.02 ± 0.08,0.963 ± 0.12,1.01 ± 0.062,0.998 ± 0.059
MYL6B (UniProt P14649),0.924 ± 0.1,0.93 ± 0.1,0.908 ± 0.056,0.953 ± 0.13,0.876 ± 0.034,0.811 ± 0.11
UniProt P05023 and related entries,1 ± 0.029,0.97 ± 0.026,0.963 ± 0.022,1 ± 0.028,0.968 ± 0.03,0.949 ± 0.04
UniProt P15170-2|P15170-3,0.995 ± 0.03,0.976 ± 0.031,0.94 ± 0.032,0.993 ± 0.026,0.937 ± 0.029,0.954 ± 0.046
GNAI2 (UniProt P04899),1.11 ± 0.087,1.07 ± 0.1,1.06 ± 0.12,1.03 ± 0.12,1.1 ± 0.11,1.03 ± 0.083
UniProt P11940 and related entries,1.02 ± 0.08,1.04 ± 0.062,1.03 ± 0.097,1.09 ± 0.05,1.04 ± 0.093,1.05 ± 0.065
EEF2 (UniProt P13639),0.949 ± 0.034,0.92 ± 0.047,0.889 ± 0.021,0.894 ± 0.069,0.925 ± 0.041,0.921 ± 0.062
UniProt P11498 and related entries,1.04 ± 0.058,1.01 ± 0.037,0.999 ± 0.021,0.985 ± 0.051,1.02 ± 0.025,0.992 ± 0.012
IGLL1 (UniProt P15814),0.986 ± 0.087,0.98 ± 0.086,0.978 ± 0.042,0.965 ± 0.064,0.921 ± 0.033,0.95 ± 0.042
ACYP2 (UniProt P14621),0.904 ± 0.03,0.934 ± 0.075,0.895 ± 0.05,0.885 ± 0.039,0.858 ± 0.036,0.896 ± 0.049
HIST1H1B (UniProt P16401),1.14 ± 0.17,1.07 ± 0.095,1.15 ± 0.11,1.33 ± 0.11,1.29 ± 0.029,1.53 ± 0.16
UniProt P09525 and related entries,0.931 ± 0.038,0.961 ± 0.039,0.922 ± 0.048,0.906 ± 0.1,0.938 ± 0.057,0.896 ± 0.053
P15531-2|P22392-2|Q32Q12 (UniProt Q32Q12+P22392+P15531),0.945 ± 0.092,0.928 ± 0.058,0.897 ± 0.029,0.884 ± 0.073,0.901 ± 0.041,0.895 ± 0.052
XRCC6 (UniProt P12956),0.865 ± 0.17,1.07 ± 0.15,0.88 ± 0.1,0.972 ± 0.072,1.04 ± 0.12,0.805 ± 0.15
UniProt P00519-2|P00519,1.07 ± 0.042,1.08 ± 0.091,1.09 ± 0.076,1.09 ± 0.068,1.02 ± 0.059,1.07 ± 0.078
TXNDC12 (UniProt O95881),0.953 ± 0.083,0.951 ± 0.018,0.913 ± 0.017,0.999 ± 0.052,0.948 ± 0.022,0.8716 ± 0.0075
DBT (UniProt P11182),1.05 ± 0.07,1.01 ± 0.095,0.983 ± 0.094,1.02 ± 0.22,1.05 ± 0.17,1.05 ± 0.13
RPN1 (UniProt P04843),1.01 ± 0.04,0.97 ± 0.021,0.9282 ± 0.005,0.97 ± 0.039,0.967 ± 0.022,0.943 ± 0.038
UniProt P07437,1.03 ± 0.076,0.923 ± 0.03,0.956 ± 0.052,0.973 ± 0.13,0.95 ± 0.056,0.946 ± 0.07
TPR (UniProt P12270),0.966 ± 0.057,0.967 ± 0.015,0.95 ± 0.023,1.02 ± 0.037,0.957 ± 0.024,0.97 ± 0.017
UniProt O95985 and related entries,0.984 ± 0.067,0.96 ± 0.077,1.01 ± 0.087,1.06 ± 0.12,1.15 ± 0.13,1.15 ± 0.17

# Single records, from the list above. Values in the order: NP40-soluble protein abundance (concentration: 1mM)	NP40-soluble protein abundance (concentration: 2mM)	NP40-soluble protein abundance (concentration: 4mM)	NP40-soluble protein abundance (concentration: 6mM)	NP40-soluble protein abundance (concentration: 8mM)	NP40-soluble protein abundance (concentration: 10mM)
# TPR (UniProt P12270) as listed: 0.966 ± 0.057	0.967 ± 0.015	0.95 ± 0.023	1.02 ± 0.037	0.957 ± 0.024	0.97 ± 0.017
# ASS1 (UniProt P00966) as listed: 0.997 ± 0.091	1.01 ± 0.09	1.02 ± 0.08	0.963 ± 0.12	1.01 ± 0.062	0.998 ± 0.059
